Results published in patent publication US10995068B2, “Synthetic sphingolipid-like molecules, drugs, methods of their synthesis and methods of treatment” (The Regents of the University of California, priority 2015, dated 2021).
Some entries share one result that the patent states for a list of compounds. For at least one compound, name, drawing or mass did not settle the structure.

Experiments:
[1] = system: PC3 prostate cancer cells; experiment: Cell Titer Glo proliferation assay in PC3; format: cell-based, human; conditions: PC3 and DU145, Cell Titer Glo
Method: Previously presented compounds 1-4 (FIG. 23), compounds 5-8 (FIG. 28), and control compound FTY720 (FIG. 2) were used to treat the well-established PC3 and DU145 prostate cancer lines (FIG. 29 and Table 1). A Cell Titer Glo assay was performed to measure proliferation of the cancer lines.
Cell culture studies: Sup-B15 cells are maintained at 2-3 million/mL in RPMI 1640 (Mediatech) supplemented with 10% fetal calf serum (FCS, Sigma-Aldrich), 10 mM Hepes (Mediatech), 55 μM β-mercaptoethanol (Sigma-Aldrich), 2 mM L-glutamine (Mediatech), and antibiotics. All adherent cells are maintained at 70-80% confluence. Cell are cultured in the following media: PC3 & A549, Ham's F12K (Corning Cell Gro) supplemented with 10% FCS and antibiotics; DU145 cells, MEM (Corning Cell Gro) supplemented with 10% FCS, 1 mM sodium pyruvate (Mediatech), and antibiotics; SW620 & MDA-MB-231, DMEM (Corning Cell Gro) with 10% FCS, 1 mM sodium pyruvate (Mediatech), and antibiotics; Panc-1 cells, DMEM (Corning Cell Gro) supplemented with 10% FCS and antibiotics. All of the above cell lines are available from the ATCC.
(§1) Viability assays: Cell Titer Glo assays (Cell Titer Glo Luminescent Cell Viability Assay kit, cat #G7571, Promega Corporation) are performed in clear bottom 96-well black cell culture plates (cat #655090, Greiner Bio-One, NC, USA). After plating at 1,000 cells/well in volume of 100 μl, cells are left undisturbed for at least 24 h before drug addition. After 72 h, cells are prepared for analysis by adding 10 μl of 0.1% Triton-X100 in PBS with shaking for 1 min at room temperature (RT). Cell Titer-Glo cell lysis reagent (20 μl) is then added followed by 1 min of shaking and a 10 min incubation in the dark at RT. Luminescence is detected using an IVIS imaging system (IVIS Lumina II, Perkin Elmer, USA). […] IC50s are determined using GraphPad Prism (GraphPad Software, Inc, La Jolla, Calif.). SupB-15 viability was determined by flow cytometry. Cell Titer Glo assays were performed with the other cell lines.

[2] = system: PC3 prostate cancer cells; experiment: Cell viability by vital dye exclusion and flow cytometry in PC3; format: cell-based, human; conditions: vital dye exclusion (DAPI) and flow cytometry, 72 h
Method: Thus, to determine whether analogues in accordance with embodiments of the invention are cytotoxic, studies were conducted using vital dye exclusion and flow cytometry (Table 2).
as §1

SMILES	activity in the prostate cancer cell proliferation assay (in words) [1]	IC50 for cell viability in PC3 Prostate Cancer cells [2]
CCCCCCCCc1ccc([C@@H]2CCN[C@H]2C)cc1.Cl [Compound 12]	nearly as potent as the parent 2-hydroxymethyl compounds and FTY720	–
CCCCCCCCc1ccc([C@H]2CCN[C@@H]2C)cc1.Cl [Compound 13]	nearly as potent as the parent 2-hydroxymethyl compounds and FTY720	–
CCCCCCCCc1ccc([C@@H]2CCN[C@H]2COC)cc1.Cl [Compound 14]	nearly as potent as the parent 2-hydroxymethyl compounds and FTY720	found to be cytotoxic
